# From patent US9314507B2, “Methods of treatment of heart failure with natriuretic peptides” (Capricor Therapeutics, INC., priority 2010, dated 2016)
# Not every detail of the peptide structures is certain; ends, links or a residue may be inferred. Where a SMILES comes first, the peptide text is derived from it. Bridges are numbered along the chain shown (N, C = ends).
# Experiments:
# Format in all cases: in vivo, human
# healthy subjects = system: healthy subjects
# [1] = system: patients hospitalized with acute heart failure requiring hemodynamic monitoring; test: Hemodynamic Monitoring Phase 2a clinical study (Hemo Study, NIL-CDNP-CT003)
# Experimental: Another exemplary study using CD-NP was a multi-center, open-label Phase 2a clinical study of CD-NP in patients hospitalized with acute heart failure requiring hemodynamic monitoring (Hemo Study, or NIL-CDNP-CT003). This study considered the efficacy of 8 hours of intravenous administration of CD-NP on changes in cardiac output and pulmonary capillary wedge pressure (PCWP, or wedge pressure).
# Stabilized acute heart failure patients requiring hemodynamic monitoring, and receiving standard-of-care heart failure medications (i.e., furosemide infusion), received an initial 8-hour CD-NP infusion followed by a 14-hour washout period, and then a further 8-hour CD-NP infusion. Hemodynamic measurements were collected for an additional 8 hours and safety measurements were collected for a further 2 days.
# Patients were enrolled into one of two sequential cohorts (Cohort A and B) which could include up to 10 evaluable patients in each cohort. Cohort A received 8 hours of 3 ng/kg/min CD-NP, followed by a 14 hour wash-out period, and then 8 hours of 10 ng/kg/min CD-NP. Cohort B received 8 hours of 1 ng/kg/min CD-NP, followed by a 14 hour wash-out period, and then 8 hours of 20 ng/kg/min CD-NP.
# The first 2 hours, (−2 to 0) represent time before administration of CD-NP. Hours 0 to 38 represent time during the CD-NP dosing regimen discussed above.
# [2] = system: patients hospitalized with acute heart failure with renal dysfunction; test: Phase 2 Pilot Study (NIL-CDNP-CT005); details: for change in creatinine clearance (CrCl) as surrogate for renal function: FIG. 8c
# [3] = system: stable heart failure patients; test: Maximum Tolerated Dose clinical study (MTD Study, NIL-CDNP-CT002)
# [4] = system: patients with chronic heart failure; test: Dosing study (fixed and weight-based dose)
# Experimental: In a dosing study, CD-NP was administered to patients with chronic heart failure. The amount of CD-NP administered was either a set amount (in μg/hr) regardless of the patient's weight, or was varied based on the patient's weight.
# In FIG. 10a, the steady state average (SS Avg) serum concentration of CD-NP in pg/mL is plotted against patient weight for patients who received low (18 μg/hr) and medium (24 μg/hr) doses of CD-NP.
# The placebo group had no significant change in SBP over the course of the study. […] In one aspect, the SBP decrease for doses 24 μg/hr is insufficient to cause a risk of hypotension. […] The weight-based group received a dose that depended on the patients weight. Using PK data, for example the linear fit of data from FIG. 10a, the dose was adjusted to give a predicted serum concentration of 500 pg/mL.
# As depicted in FIG. 12, the concentration of CD-NP in serum vs. time after initial dosing for patients on a low dose and a medium dose.
compound,measurement,setting,value
"CC[C@H](C)[C@@H]1NC(=O)[C@H](CCCNC(=N)N)NC(=O)[C@H](CC(=O)O)NC(=O)[C@H](CCCCN)NC(=O)[C@H](CC(C)C)NC(=O)CNC(=O)[C@H](Cc2ccccc2)NC(=O)[C@@H](NC(=O)CNC(=O)[C@H](CCCCN)NC(=O)[C@H](CO)NC(=O)[C@H](CC(C)C)NC(=O)CN)CSSC[C@@H](C(=O)N2CCC[C@H]2C(=O)N[C@@H](CO)C(=O)N[C@@H](CC(C)C)C(=O)N[C@@H](CCCNC(=N)N)C(=O)N[C@@H](CC(=O)O)C(=O)N2CCC[C@H]2C(=O)N[C@@H](CCCNC(=N)N)C(=O)N2CCC[C@H]2C(=O)N[C@@H](CC(N)=O)C(=O)N[C@@H](C)C(=O)N2CCC[C@H]2C(=O)N[C@@H](CO)C(=O)N[C@H](C(=O)N[C@@H](CO)C(=O)N[C@@H](C)C(=O)O)[C@@H](C)O)NC(=O)CNC(=O)[C@H](CC(C)C)NC(=O)CNC(=O)[C@H](CO)NC(=O)[C@H](CCSC)NC(=O)[C@H](CO)NC(=O)CNC1=O [CD-NP, cenderitide] (H-GLSKGCFGLKDRIGSMSGLGCPSLRDPRPNAPSTSA-OH; disulfide 6-21; N-terminus and C-terminus assumed)",mean arterial pressure (MAP),"healthy subjects; 25 ng/kg/min, vs placebo, FIG. 2a",reduced MAP more than treatment with a placebo
same,diuresis,"healthy subjects; FIG. 2b, 2c",a trend toward an increase in diuresis
same,natriuresis,"healthy subjects; FIG. 2b, 2c",an increase in natriuresis
same,aldosterone,"healthy subjects; human, in vivo",suppression of aldosterone
same,plasma cyclic guanosine monophosphate (cGMP),"healthy subjects; human, in vivo",increase in the plasma in a dose dependent manner
same,cardiac filling pressure (wedge change),"[1]; 1 ng/kg/min, FIG. 5b",did not have an effect on cardiac filling pressure
same,change in urine volume,"[1]; 1 ng/kg/min, FIG. 6",insignificant
same,increase in urine volume vs pre-dose,"[1]; 3 ng/kg/min, FIG. 6",48 mL/h
same,increase in urine volume vs pre-dose,"[1]; 10 ng/kg/min, FIG. 6",93 mL/h
same,cardiac filling pressure (wedge change),"[1]; 20 ng/kg/min, FIG. 5b",no apparent effect on cardiac filling pressure
same,increase in urine volume vs pre-dose,"[1]; 20 ng/kg/min, FIG. 6",72 mL/h
same,effect on SBP,"[1]; 1, 3 and 10 ng/kg/min, 8 h infusion, FIG. 4",minimal effect on SBP
same,cardiac filling pressure (wedge change),"[1]; 3 and 10 ng/kg/min, FIG. 5a",reduction of cardiac filling pressure
same,change in creatinine clearance (CrCl) as surrogate for renal function,[2]; 1.25 ng/kg/min,appears not to effect renal function
same,patients with decreases of serum creatinine greater than 0.3 mg/dL,"[2]; 1.25 ng/kg/min, FIG. 9",35%
same,post-infusion SBP,"[2]; 2.5 ng/kg/min vs 1.25 ng/kg/min, FIG. 7b",SBP increased less rapidly post-infusion
same,change in creatinine clearance (CrCl) as surrogate for renal function,[2]; 2.5 ng/kg/min,appears to improve renal function
same,change in creatinine clearance (CrCl) as surrogate for renal function,[2]; 3.75 ng/kg/min,appears to decrease renal function
same,plasma BNP levels,"[2]; 3.75 ng/kg/min, vs placebo",decreased plasma BNP levels versus placebo
same,average drop in SBP,"[2]; 5 ng/kg/min combined with IV bolus furosemide, standard deviation 10 mmHg",24 mmHg
same,serum creatinine levels,"[2]; 1.25, 2.5 and 3.75 ng/kg/min, vs placebo, FIG. 8a",increased as compared to a placebo
same,serum cystatin-c levels,"[2]; 1.25, 2.5 and 3.75 ng/kg/min, vs placebo, FIG. 8b",decreased s compared to a placebo
same,change in SBP from baseline to end of infusion,"[2]; dosages as low as 1.25 ng/kg/min, FIG. 7a",lowering of SBP
same,reduction in systolic blood pressure (SBP),"[3]; 3 ng/kg/min, FIG. 3a",less than 3 mm Hg
same,reduction in blood pressure,"[3]; 10 ng/kg/min, FIG. 3a",clinically meaningful reduction in blood pressure
same,absolute urine volume (diuresis),"[3]; 3 to 20 ng/kg/min, 24 h infusion, vs Day 0 on furosemide, FIG. 3c",increased absolute urine volume
same,"renal function, measured by serum creatinine and cystatin-C","[3]; 3 to 20 ng/kg/min, after switch from furosemide, FIG. 3b",increased renal function
same,blood pressure,"[3]; across doses, vs Day 0 baseline",dose dependent drop in blood pressure
same,change in SBP,"[4]; low dose 18 μg/hr (300 ng/min), 30 hours after dose initiation",only a small change in SBP
same,change in SBP,[4]; medium dose 24 μg/hr (400 ng/min),clinically significant decrease in SBP
